Literature values, collected in patent US20230393118A1, “DEVICES AND METHODS FOR MONITORING CELLS, TISSUES, OR ORGANS-ON-A-CHIP” (University of Rochester, priority 2020, published 2023).
At least one structure is not confirmed: it was looked up by name or label, or the drawing left a doubt.

Conditions: estimated in rodents in the literature; cited from earlier work

For `CO[C@H]1C[C@@H]2CC[C@@H](C)[C@@](O)(O2)C(=O)C(=O)N2CCCC[C@H]2C(=O)O[C@H]([C@H](C)C[C@@H]2CC[C@@H](O)[C@H](OC)C2)CC(=O)[C@H](C)/C=C(\C)[C@@H](O)[C@@H](OC)C(=O)[C@H](C)C[C@H](C)/C=C/C=C/C=C/1C` [Sirolimus], the ED50 is listed as 0.28 to 1.6 mg/kg.
